No constants are given. Whether binding was seen depends on the method and setting. In cells and extracts the contact can be indirect. Some binding calls cover weakened binding; strength is not graded here.

Chains of the proteins cited; added tags and fusions are not shown.
UniProt P06730: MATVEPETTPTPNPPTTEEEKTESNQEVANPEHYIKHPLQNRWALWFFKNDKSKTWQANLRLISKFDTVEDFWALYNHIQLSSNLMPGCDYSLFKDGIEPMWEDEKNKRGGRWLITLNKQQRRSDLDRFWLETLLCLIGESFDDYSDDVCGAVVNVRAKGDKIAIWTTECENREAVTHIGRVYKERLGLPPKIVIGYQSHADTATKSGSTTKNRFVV
UniProt P31152: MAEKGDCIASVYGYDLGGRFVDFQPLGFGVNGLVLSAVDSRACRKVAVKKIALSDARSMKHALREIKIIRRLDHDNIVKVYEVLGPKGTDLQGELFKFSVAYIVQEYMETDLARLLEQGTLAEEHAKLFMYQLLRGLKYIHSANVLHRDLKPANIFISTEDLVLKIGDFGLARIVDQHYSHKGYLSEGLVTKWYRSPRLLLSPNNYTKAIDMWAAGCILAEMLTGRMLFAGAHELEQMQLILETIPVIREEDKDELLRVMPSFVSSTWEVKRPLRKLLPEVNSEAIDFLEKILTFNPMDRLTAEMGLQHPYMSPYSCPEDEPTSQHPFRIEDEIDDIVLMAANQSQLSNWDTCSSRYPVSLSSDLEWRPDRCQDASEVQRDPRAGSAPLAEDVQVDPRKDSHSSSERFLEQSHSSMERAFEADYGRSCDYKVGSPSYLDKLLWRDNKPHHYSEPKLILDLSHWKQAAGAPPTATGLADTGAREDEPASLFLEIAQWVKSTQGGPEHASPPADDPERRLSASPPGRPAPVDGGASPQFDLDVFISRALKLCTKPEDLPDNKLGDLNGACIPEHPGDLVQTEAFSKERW

Assay [1] addresses Flag-tagged eIF4E (human) (UniProt P06730). As to the kind of experiment: co-IP; HEK293T cells co-transfected with the two tagged proteins; lysates prepared 48 h later; immunoprecipitation with anti-FLAG M2 affinity gel, then western blots.
The target of assay [2] is Flag/His-tagged MAPK4 (UniProt P31152). The description is as above.
For assay [3], the target named is GST-MAPK4 fusion protein (UniProt P31152). As to the kind of experiment: pull-down; purified GST-MAPK4 as bait with MDA-MB-231, HS578T and HCC1937 cell lysates; GST-FH (GST-HF) protein as control; western blot for endogenous eIF4E; only the target purified.

On to “HA-tagged MAPK4 (mitogen-activated protein kinase 4) (from UniProt P31152 1-587) (enzyme)”, for which the binding entry in assay [1] is listed as “binds”. For “HA-tagged eIF4E (from UniProt P06730 1-217)”, the binding entry in assay [2] was “binds”. Take “endogenous eIF4E (from UniProt P06730 1-217)”: the binding entry in assay [3] is recorded as “binds”.

Source of the values: publication PMC10395914.
